Data source: PubChem BioAssay AID1159578 (Peter MacCallum Cancer Centre, 2015)
Test: 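Knock-downs that alter how fast lymphatic endothelial cells migrate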 (primary screen). Cell system: human lymphatic endothelial cells. Reagents: siRNA pool against human genes, 40 nM. Duration: 48 h after transfection. Measured: 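Cells stained with dye and imaged after a scratch; covered wound area and nuclei counted, duplicates averaged, migration set against mock wells and turned into a robust z-score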. Reading the numbers: migration robust z-score: higher = faster migration into the scratch; migration relative to mock: higher = more scratch area covered than mock; nuclei per well: higher = more cells in the well. Rule for the call: 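Migration changed when robust z exceeds 2 or falls below -2 and mean nuclei number is at least 3300; otherwise not called changed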. Calls: active = migration changed; inactive = no migration change, or too few cells.
This is a random part of about 18,000 deposited reagents. About 1,030 of them (5.7%) count as active. 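Inactive calls also include pools with fewer than 3300 nuclei, whose migration was not assessed.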 Raw values vary from plate to plate and are shown uncorrected.

gene,migration robust z-score,migration class with cell-count check,migration relative to mock,"nuclei per well, duplicate mean",Call
TAF1L,-0.65,migration z between -2 and 2; enough cells,0.68,4716,inactive
ERICH5,0.26,migration z between -2 and 2; enough cells,0.95,6359,inactive
LDHC,0.65,migration z between -2 and 2; enough cells,0.93,5964,inactive
RAPSN,0.11,migration z between -2 and 2; enough cells,0.82,5856,inactive
EGFR,0.34,migration z between -2 and 2; enough cells,0.87,5358,inactive
MMEL1,1.48,migration z between -2 and 2; enough cells,1.09,5782,inactive
EMD,0.61,migration z between -2 and 2; enough cells,1.04,5301,inactive
MSRB3,0.8,migration z between -2 and 2; enough cells,0.96,5717,inactive
DNAJC24,-0.2,migration z between -2 and 2; enough cells,0.83,5600,inactive
SF3B4,1.32,migration z between -2 and 2; enough cells,1.23,5490,inactive
GALNT9,0.19,migration z between -2 and 2; enough cells,0.94,6572,inactive
TBC1D29P,0.64,migration z between -2 and 2; enough cells,1.05,5928,inactive
FMC1,-2.4,migration z below -2; enough cells,0.26,4826,active
IFT74,0.99,migration z between -2 and 2; enough cells,1.15,5644,inactive
HMCN2,0.66,migration z between -2 and 2; enough cells,1.06,5742,inactive
IRAG2,0.14,migration z between -2 and 2; enough cells,0.92,6076,inactive
ACKR4,-0.75,migration z between -2 and 2; enough cells,0.66,5559,inactive
PRH2,-1.27,migration z between -2 and 2; enough cells,0.56,5806,inactive
ZBTB10,0.5,migration z between -2 and 2; enough cells,1.02,5252,inactive
KGD4,0.46,migration z between -2 and 2; enough cells,1,6626,inactive
TTC14,0.56,migration z between -2 and 2; enough cells,1.03,6027,inactive
EXOSC1,-0.44,migration z between -2 and 2; enough cells,0.78,5762,inactive
KLF13,0.78,migration z between -2 and 2; enough cells,0.96,5930,inactive

A run of entries of the results above:
gene,migration robust z-score,migration class with cell-count check,migration relative to mock,"nuclei per well, duplicate mean",Call
ERICH5,0.26,migration z between -2 and 2; enough cells,0.95,6359,inactive
LDHC,0.65,migration z between -2 and 2; enough cells,0.93,5964,inactive
RAPSN,0.11,migration z between -2 and 2; enough cells,0.82,5856,inactive
EGFR,0.34,migration z between -2 and 2; enough cells,0.87,5358,inactive
MMEL1,1.48,migration z between -2 and 2; enough cells,1.09,5782,inactive
EMD,0.61,migration z between -2 and 2; enough cells,1.04,5301,inactive

More results:
gene,migration robust z-score,migration class with cell-count check,migration relative to mock,"nuclei per well, duplicate mean",Call
WFS1,-1.79,migration z between -2 and 2; enough cells,0.46,4586,inactive
NDEL1,-1.14,migration z between -2 and 2; enough cells,0.6,4536,inactive
PHRF1,0.23,migration z between -2 and 2; enough cells,0.85,5098,inactive
TBC1D14,-0.66,migration z between -2 and 2; enough cells,0.71,5676,inactive
CZIB,0.53,migration z between -2 and 2; enough cells,1.02,4683,inactive
ZDHHC20,-0.71,migration z between -2 and 2; enough cells,0.7,5635,inactive
CLN3,-0.62,migration z between -2 and 2; enough cells,0.72,5555,inactive
CYP8B1,-1.03,migration z between -2 and 2; enough cells,0.6,6122,inactive
CDK5RAP3,1.97,migration z between -2 and 2; enough cells,1.4,5958,inactive
PRMT7,-1.4,migration z between -2 and 2; enough cells,0.54,3606,inactive
TP53AIP1,-1.36,migration z between -2 and 2; enough cells,0.53,4900,inactive
KIAA0825,1.59,migration z between -2 and 2; enough cells,1.3,5498,inactive
TPPP,-0.26,migration z between -2 and 2; enough cells,0.82,5799,inactive
HCAR1,-0.24,migration z between -2 and 2; enough cells,0.76,5186,inactive
RFC3,0.73,migration z between -2 and 2; enough cells,0.94,5146,inactive
BCL9L,-0.04,migration z between -2 and 2; enough cells,0.87,5360,inactive
